The assay addresses KaiA3 (Sll0485), yeast two-hybrid fusion (Synechocystis sp. PCC 6803). The experiment in a line: two-hybrid; AH109 yeast; GAL4 AD and BD fusions; growth on CSM -Leu -Trp -His with 12.5 mM 3-amino-1,2,4-triazole, 6 days at 30 °C.

No constants are given. Whether binding was seen depends on the method and setting. Tags and fused reporters may be left off the sequences shown.

B1: KaiC1, yeast two-hybrid fusion (protein, UniProt P74646 1-519)
chain: MNLPIVNERNRPDVPRKGVQKIRTVIEGFDEITHGGLPIGRTTLVSGTSGTGKTLLAVQFLYQGIHHFDYPGLFITFEESPSDIIENAYSFGWDLQQLIDDGKLFILDASPDPEGQEVVGTFDLSALIERIQYAVRKYKAKLVSIDSVTAVFQQYDAASVVRREIFRLVARLKQLQVTSIMTTERVEEYGPIARFGVEEFVSDNVVVLRNVLEGERRRRTVEILKLRGTTHMKGEYPFTITHDGINIFPLGAMRLTQRSSNARISSGVQTLDEMCGGGFFKDSIILATGATGTGKTLLVSKFLQEGCRQRERAILFAYEESRAQLSRNASSWGIDFEEMEHKGLLKLLCTYPESAGLEDHLQMIKSEISEFKPSRIAIDSLSALARGVTNNAFRQFVIGVTGYAKQEEITGFFTNTTDQFMGAHSITESHISTITDTILMLQYVEIRGEMSRALNVFKMRGSWHDKGIREYSISHDGPDIRDSFRNYERIISGSPTRISVDEKSELSRIVRGVKDKTAE
B1: the binding entry is recorded as “no binding”.

The values are drawn from article PMC11372060, “Two KaiABC systems control circadian oscillations in one cyanobacterium” (Nature Communications, 2024).
